Test results: patent publication US7981998 (dated 2011)

Assay: general procedure: Fmoc solid-phase peptide synthesis; Knorr Amide resin; HCTU, DIEA
Conditions: whole synthesis, scale 0.1 mmol

For “Ac-Asp-Ile-Re-Arg-Asn-Ile-Ala-Arg-His-Leu-Ala-c[MeCys-Val-Gly-Asp-α-MeCys]-Nle-Asp-Arg-Ser-Ile-NH2”, the isolated mass was 0.6 mg.
